Data as given in PubChem BioAssay AID1224828 (NIAID, 2016).

Aim: 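Find genes required for NF-kappaB p65 moving into the nucleus after LPS in mouse macrophages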 (primary screen)
System: mouse RAW264.7 G9 macrophage reporter cells (GFP-p65, Tnf promoter-mCherry)
Knock-down reagent: siRNA pool against mouse genes, 100 nM
Duration: 2 days siRNA transfection, then 40 min LPS before fixation
Challenge: LPS (Salmonella minnesota R595) at 10 ng/ml
Measurement: 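Imaged p65 nuclear translocation ratio, normalised to the plate median, converted to robust z-scores and averaged across two replicates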
Scale: p65 translocation robust z-score: higher = more nuclear NF-kappaB p65 after LPS than the plate median; nuclear/cytoplasmic p65 ratio: higher = more nuclear NF-kappaB p65
Rule for the call: 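Active if robust z is above 3.3 (negative regulators) or below -1.56, the Tlr4 control median (positive regulators); activity score 50 or more; control wells not called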
Calls: active = hit (p65 shift raised or lowered); inactive = no clear change
In all, the deposit lists about 17,000 reagents; this is an unselected part. Of all reagents, 762 (4.5%) got an active call. 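Active calls include both raised and lowered p65 entry, mostly lowered; wells with fewer than 50 cells lack a z-score.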 The raw values are shown without normalisation. A number with no mark means an inactive call.

Against Klrc3 (GeneID 58179) the deposit lists p65 translocation robust z-score 2.21; nuclear/cytoplasmic p65 ratio, rep 1 = 1.93; nuclear/cytoplasmic p65 ratio, rep 2 = 1.67; low cell count flag enough cells to score.
Rgs12 (GeneID 71729) showed p65 translocation robust z-score -1.06; nuclear/cytoplasmic p65 ratio, rep 1 = 1.37; nuclear/cytoplasmic p65 ratio, rep 2 = 1.42; low cell count flag enough cells to score.
Depletion of Gpr156 (GeneID 239845) resulted in: p65 translocation robust z-score 1.01; nuclear/cytoplasmic p65 ratio, rep 1 = 1.63; nuclear/cytoplasmic p65 ratio, rep 2 = 1.75; low cell count flag enough cells to score.
With knock-down of Olfr197 (GeneID 258477), the screen gave p65 translocation robust z-score -1.09; nuclear/cytoplasmic p65 ratio, rep 1 = 1.44; nuclear/cytoplasmic p65 ratio, rep 2 = 1.29; low cell count flag enough cells to score.
Against Ntpcr (GeneID 66566), the entry reads nuclear/cytoplasmic p65 ratio, rep 1 = 1.33; nuclear/cytoplasmic p65 ratio, rep 2 = 1.08; low cell count flag fewer than 50 cells per well; well left out of scoring.
Against Dvl2 (GeneID 13543), the values are p65 translocation robust z-score 1.28; nuclear/cytoplasmic p65 ratio, rep 1 = 1.71; nuclear/cytoplasmic p65 ratio, rep 2 = 1.49; low cell count flag enough cells to score.
Acsl4 (GeneID 50790) showed p65 translocation robust z-score -0.11; nuclear/cytoplasmic p65 ratio, rep 1 = 1.62; nuclear/cytoplasmic p65 ratio, rep 2 = 1.58; low cell count flag enough cells to score.
Cdc23 (GeneID 52563) gave p65 translocation robust z-score 0.57; nuclear/cytoplasmic p65 ratio, rep 1 = 1.69; nuclear/cytoplasmic p65 ratio, rep 2 = 1.32; low cell count flag enough cells to score.
Against Tprg1 (GeneID 71338) the deposit lists p65 translocation robust z-score -0.06; nuclear/cytoplasmic p65 ratio, rep 1 = 1.34; nuclear/cytoplasmic p65 ratio, rep 2 = 1.47; low cell count flag enough cells to score.
For Casz1 (GeneID 69743), the values are p65 translocation robust z-score 0.05; nuclear/cytoplasmic p65 ratio, rep 1 = 1.55; nuclear/cytoplasmic p65 ratio, rep 2 = 1.85; low cell count flag enough cells to score.
Tpgs1 (GeneID 110012) showed nuclear/cytoplasmic p65 ratio, rep 1 = 1.04; nuclear/cytoplasmic p65 ratio, rep 2 = 1.35; low cell count flag fewer than 50 cells per well; well left out of scoring.
Knock-down of Cacng3 (GeneID 54376) resulted in: p65 translocation robust z-score 0.4; nuclear/cytoplasmic p65 ratio, rep 1 = 1.46; nuclear/cytoplasmic p65 ratio, rep 2 = 1.84; low cell count flag enough cells to score.
For Pde9a (GeneID 18585) the deposit lists p65 translocation robust z-score -0.63; nuclear/cytoplasmic p65 ratio, rep 1 = 1.34; nuclear/cytoplasmic p65 ratio, rep 2 = 1.35; low cell count flag enough cells to score.
For Samsn1 (GeneID 67742), the entry reads nuclear/cytoplasmic p65 ratio, rep 1 = 1.4; nuclear/cytoplasmic p65 ratio, rep 2 = 1.55; low cell count flag fewer than 50 cells per well; well left out of scoring.
Against Vmn1r41 (GeneID 113857), the values are p65 translocation robust z-score -0.8; nuclear/cytoplasmic p65 ratio, rep 1 = 1.26; nuclear/cytoplasmic p65 ratio, rep 2 = 1.16; low cell count flag enough cells to score.
After knock-down of Papln (GeneID 170721), the screen gave p65 translocation robust z-score 0.76; nuclear/cytoplasmic p65 ratio, rep 1 = 1.54; nuclear/cytoplasmic p65 ratio, rep 2 = 1.5; low cell count flag enough cells to score.
Against Mst1 (GeneID 15235), the entry reads p65 translocation robust z-score -1; nuclear/cytoplasmic p65 ratio, rep 1 = 1.3; nuclear/cytoplasmic p65 ratio, rep 2 = 1.23; low cell count flag enough cells to score.
After knock-down of Il11ra2 (GeneID 16158), the screen gave p65 translocation robust z-score 0.72; nuclear/cytoplasmic p65 ratio, rep 1 = 1.45; nuclear/cytoplasmic p65 ratio, rep 2 = 1.48; low cell count flag enough cells to score.
Against Spic (GeneID 20728), the entry reads p65 translocation robust z-score 0.05; nuclear/cytoplasmic p65 ratio, rep 1 = 1.52; nuclear/cytoplasmic p65 ratio, rep 2 = 1.6; low cell count flag enough cells to score.
Akt2 (GeneID 11652) scored p65 translocation robust z-score 0.1; nuclear/cytoplasmic p65 ratio, rep 1 = 1.8; nuclear/cytoplasmic p65 ratio, rep 2 = 1.4; low cell count flag enough cells to score.
For Psma7 (GeneID 26444) the deposit lists nuclear/cytoplasmic p65 ratio, rep 1 = 1.22; nuclear/cytoplasmic p65 ratio, rep 2 = 1.04; low cell count flag fewer than 50 cells per well; well left out of scoring.

Targets above whose gene name starts with C or c (3):
Cdc23 (GeneID 52563): p65 translocation robust z-score = 0.57; nuclear/cytoplasmic p65 ratio, rep 1 = 1.69; nuclear/cytoplasmic p65 ratio, rep 2 = 1.32; low cell count flag = enough cells to score
Casz1 (GeneID 69743): p65 translocation robust z-score = 0.05; nuclear/cytoplasmic p65 ratio, rep 1 = 1.55; nuclear/cytoplasmic p65 ratio, rep 2 = 1.85; low cell count flag = enough cells to score
Cacng3 (GeneID 54376): p65 translocation robust z-score = 0.4; nuclear/cytoplasmic p65 ratio, rep 1 = 1.46; nuclear/cytoplasmic p65 ratio, rep 2 = 1.84; low cell count flag = enough cells to score
